# This list was built around the results that the source calls inconclusive (neither active nor inactive); the mix of calls is not that of the screen. Potencies of inconclusive entries are doubtful fits and often do not repeat. Activity calls are given as the source filed them. Calls come from the whole dose curve; as a rule, active = well fitted curve in the direction sought with a large enough effect; inconclusive = small, poorly fitted or top-dose-only effect, or another doubt; inactive = no such curve, though single readings can be large; an effect the other way counts as inactive or inconclusive.
# Protein sequences, listed by entry. Tags and fused reporters are not part of them. Lines headed by an entry give the natural chain unless they say otherwise; changes in a name come on top.
# UniProt P10635, whole entry, looked up: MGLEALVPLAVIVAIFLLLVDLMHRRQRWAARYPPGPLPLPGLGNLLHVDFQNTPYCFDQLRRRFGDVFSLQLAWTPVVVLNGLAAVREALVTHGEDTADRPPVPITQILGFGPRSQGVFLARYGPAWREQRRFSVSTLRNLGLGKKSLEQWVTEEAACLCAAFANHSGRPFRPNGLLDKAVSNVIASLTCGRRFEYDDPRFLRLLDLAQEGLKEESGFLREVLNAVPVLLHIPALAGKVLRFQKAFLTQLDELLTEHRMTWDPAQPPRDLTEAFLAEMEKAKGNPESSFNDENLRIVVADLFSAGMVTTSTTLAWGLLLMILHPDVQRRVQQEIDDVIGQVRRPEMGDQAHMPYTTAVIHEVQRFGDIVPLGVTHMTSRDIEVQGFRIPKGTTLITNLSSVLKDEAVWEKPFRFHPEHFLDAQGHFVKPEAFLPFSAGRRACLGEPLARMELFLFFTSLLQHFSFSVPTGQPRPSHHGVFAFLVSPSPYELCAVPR
# UniProt O75469: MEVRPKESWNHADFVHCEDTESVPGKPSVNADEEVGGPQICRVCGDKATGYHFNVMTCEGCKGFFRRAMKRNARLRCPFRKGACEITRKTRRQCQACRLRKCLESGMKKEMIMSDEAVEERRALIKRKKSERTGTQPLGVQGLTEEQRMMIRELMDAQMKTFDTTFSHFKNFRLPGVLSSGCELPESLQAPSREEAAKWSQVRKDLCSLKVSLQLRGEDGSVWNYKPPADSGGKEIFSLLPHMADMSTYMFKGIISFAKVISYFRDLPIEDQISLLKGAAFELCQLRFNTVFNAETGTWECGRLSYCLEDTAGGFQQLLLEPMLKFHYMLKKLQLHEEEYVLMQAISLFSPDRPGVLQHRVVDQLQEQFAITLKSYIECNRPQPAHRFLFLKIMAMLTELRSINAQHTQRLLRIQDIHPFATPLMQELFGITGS
# Legend:
# [1] = Quantitative High-Throughput drug screen in 47 multiple myeloma cell lines against the NCATS MIPE library collection: OPM2_DSMZ cell viability assay (AID 1919872); details: OPM2 myeloma viability, CellTiter-Glo ATP luminescence, 48 h; series mostly up to 45.8 µM; note: potency is the fitted concentration of half-maximal effect; nearly all actives have a fitted effect of over 30% in size
# In short: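 Myeloma cells (500 per well) were exposed to MIPE 4.0 compounds by pin transfer and incubated 48 hours at 37C, 5% CO2. Viability was read as ATP by CellTiter-Glo luminescence, normalised to DMSO (100%) and media-only (0%) wells.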
# [2] = Quantitative High-Throughput drug screen in 47 multiple myeloma cell lines against the NCATS MIPE library collection: KMS11_JCRBsus cell viability assay (AID 1919873); note: nearly all actives have a fitted effect of over 50% in size; note: potency is the fitted concentration of half-maximal effect
# In short: (§1)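 500 cells/well per myeloma line exposed to pinned MIPE 4.0 compounds for 48 h at 37 °C, 5% CO2. Viability read as ATP by CellTiter-Glo luminescence, normalised to DMSO-only (100%) and media-only (0%) wells.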
# [3] = Quantitative High-Throughput drug screen in 47 multiple myeloma cell lines against the NCATS MIPE library collection: KMS28BM_JCRB cell viability assay (AID 1919874); note: nearly all actives have a fitted effect of over 35% in size; note: potency is the fitted concentration of half-maximal effect
# In short: as §1
# [4] = target: Cytochrome P450 2D6 (Homo sapiens) (UniProt P10635); experiment: qHTS for inhibitors of CYP2D6 against the NCATS DSHEA and TCM libraries (AID 1919972); details: CYP2D6 enzymatic inhibition, luminescence qHTS; note: potency is the fitted concentration of half-maximal effect
# In short: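 Luminescent P450-Glo read-out of CYP2D6 turnover of a luciferin substrate after NADPH-driven reaction of 30-45 min at room temperature. Compounds were first preincubated 15 min with enzyme at titrated concentrations; quinidine was the intraplate control.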
# [5] = target: Nuclear receptor subfamily 1 group I member 2 (Homo sapiens) (UniProt O75469); experiment: Dual reporter qHTS for agonist of Pregnane X Receptor (hPXR) against the NCATS DSHEA and TCM libraries: Luminescence readout (AID 1920059); details: hPXR dual reporter cells, luciferase luminescence agonist; note: potency is the fitted concentration of half-maximal effect
# In short: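 hPXR-Luc HepG2 cells, 2000/well in 5% charcoal-stripped FBS medium, attached 5 h, then exposed 24 h at 37C to compounds. Viability by CellTiter-Fluor, then luciferase luminescence with ONE-Glo.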
# [6] = target: Nuclear receptor subfamily 1 group I member 2 (Homo sapiens) (UniProt O75469); experiment: Dual reporter qHTS for antagonist of Pregnane X Receptor (hPXR) against the NCATS DSHEA and TCM libraries: Luminescence Readout (AID 1920060); details: hPXR dual reporter cells, luciferase luminescence, antagonist mode
# In short: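 In antagonist mode, 2 uM rifampicin was added to hPXR-Luc HepG2 cells alongside test substances, incubated 24 h at 37 C; luminescence gave reporter activity, and CellTiter-Fluor fluorescence (405/540 nm) gave viability.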
compound,measurement,setting,value
COC(=O)c1ccc2c(C(=Nc3ccc(N(C)C(=O)CN4CCN(C)CC4)cc3)c3ccccc3)c(O)[nH]c2c1,Potency,[1],"inconclusive: 18.7 µM [cytotoxic, partial curve]"
same,Potency,[2],"inconclusive: 0.526 µM [cytotoxic, full curve]"
same,Potency,[3],"inconclusive: 2.64 µM [cytotoxic, full curve]"
NC(=O)c1noc([C@H](CCCC2CCCCC2)CC(=O)NO)n1,Potency,[2],"inconclusive: 18.7 µM [cytotoxic, partial curve]"
O=C(O)c1ccc(Nc2ncc3c(n2)-c2ccc(Cl)cc2C(c2c(F)cccc2F)=NC3)cc1,Potency,[1],"inconclusive: 0.469 µM [cytotoxic, partial curve, poor fit]"
same,Potency,[3],"inconclusive: 0.105 µM [cytotoxic, full curve]"
Cc1nc2cnc3ccc(C#Cc4cccnc4)cc3c2n1-c1ccc(C(C)(C)C#N)cc1,Potency,[2],"inconclusive: 0.0743 µM [cytotoxic, full curve]"
O=C1NC(=O)C(c2cnc3ccccn23)=C1c1cn2c3c(cccc13)CN(C(=O)N1CCOCC1)CC2,Potency,[1],active: 0.0047 µM
same,Potency,[3],inactive
CS(=O)(=O)c1ccc(C(=O)Nc2ccc(Cl)c(-c3ccccn3)c2)c(Cl)c1,Potency,[2],inactive
CC(=O)[C@]1(O)Cc2c(O)c3c(c(O)c2[C@@H](O[C@H]2C[C@H](N)[C@@H](O)[C@H](C)O2)C1)C(=O)c1ccccc1C3=O,Potency,[2],active: 0.264 µM
Cn1cnc([N+](=O)[O-])c1Sc1ncnc2nc[nH]c12,Potency,[2],"inconclusive: 20.9 µM [cytotoxic, single point]"
same,Potency,[3],active: 5.9 µM
COc1cc2c(Nc3ccc(Br)cc3F)ncnc2cc1OCC1CCN(C)CC1,Potency,[1],"inconclusive: 20.9 µM [cytotoxic, partial curve]"
same,Potency,[2],"inconclusive: 4.18 µM [cytotoxic, partial curve, poor fit]"
same,Potency,[3],"inconclusive: 5.26 µM [cytotoxic, partial curve, poor fit]"
COc1ccc(C2CNC(=O)C2)cc1OC1CCCC1 (stereo not drawn),Potency,[2],inactive
COc1ccc(-c2ccc3c(N4CCOCC4)nc(N4C[C@@H](C)O[C@@H](C)C4)nc3n2)cc1CO,Potency,[1],active: 1.18 µM
same,Potency,[2],active: 0.059 µM
same,Potency,[3],active: 1.32 µM
O=C(c1cc(Cc2n[nH]c(=O)c3ccccc23)ccc1F)N1CCN(C(=O)C2CC2)CC1,Potency,[2],"inconclusive: 23.5 µM [cytotoxic, single point]"
COc1cc(Nc2ncc(F)c(Nc3ccc4c(n3)N(COP(=O)(O)O)C(=O)C(C)(C)O4)n2)cc(OC)c1OC,Potency,[1],active: 18.7 µM
same,Potency,[2],active: 2.96 µM
same,Potency,[3],"inconclusive: 37.2 µM [cytotoxic, single point]"
COc1ccc(-c2oc3c(CC=C(C)C)c(O)cc(O)c3c(=O)c2O)cc1,Potency,[2],inactive
C[N+](C)([O-])CCNc1ccc(NCC[N+](C)(C)[O-])c2c1C(=O)c1c(O)ccc(O)c1C2=O,Potency,[2],inactive
Oc1cc(-c2nc(-c3ccccc3)[nH]c2-c2ccncc2)ccc1Cl,Potency,[1],"inconclusive: 13.2 µM [cytotoxic, partial curve, poor fit]"
same,Potency,[3],"inconclusive: 10.5 µM [cytotoxic, partial curve]"
C#CCC(Cc1cnc2nc(N)nc(N)c2n1)c1ccc(C(=O)N[C@@H](CCC(=O)O)C(=O)O)cc1 (stereo partly drawn),Potency,[2],active: 0.0935 µM
COc1c(C)c2c(c(O)c1CC=C(C)CCC(=O)O)C(=O)OC2,Potency,[2],"inconclusive: 1.32 µM [cytotoxic, full curve]"
CS[C@H]1SC[C@@H]2C(=O)N(C)[C@H](C(C)C)C(=O)OC[C@H](NC(=O)c3cnc4ccccc4n3)C(=O)N[C@H](C)C(=O)N(C)[C@@H]1C(=O)N(C)[C@H](C(C)C)C(=O)OC[C@H](NC(=O)c1cnc3ccccc3n1)C(=O)N[C@H](C)C(=O)N2C,Potency,[2],active: 0.0033 µM
CCC[C@H](Nc1nc(-c2ccc(NC(=O)NCC)c(OC)c2)ncc1C)c1cccnc1,Potency,[1],active: 0.0083 µM
same,Potency,[3],"inconclusive: 0.0026 µM [cytotoxic, full curve]"
CCc1cc(Nc2nccc(-c3c(-c4ccc(OC)c(C(=O)Nc5c(F)cccc5F)c4)nc4ccccn34)n2)c(OC)cc1N1CCC(N2CCN(S(C)(=O)=O)CC2)CC1,Potency,[1],"inconclusive: 6.62 µM [cytotoxic, partial curve, poor fit]"
same,Potency,[2],"inconclusive: 5.9 µM [cytotoxic, partial curve]"
same,Potency,[3],"inconclusive: 26.4 µM [cytotoxic, single point]"
CC[C@]12C=CCN3CC[C@@]4(c5cc([C@@]6(C(=O)OC)C[C@H]7C[C@@H](C(C)(F)F)CN(Cc8c6[nH]c6ccccc86)C7)c(OC)cc5N(C)[C@H]4[C@@](O)(C(=O)OC)[C@H]1OC(C)=O)[C@@H]32,Potency,[1],active: 0.0118 µM
same,Potency,[3],"inconclusive: 0.0053 µM [cytotoxic, full curve, poor fit]"
N#CCNC(=O)c1ccc(-c2ccnc(Nc3ccc(N4CCOCC4)cc3)n2)cc1,Potency,[2],active: 7.43 µM
NNCCc1ccccc1,Potency,[1],"inconclusive: 18.7 µM [cytotoxic, partial curve]"
same,Potency,[3],"inconclusive: 1.66 µM [cytotoxic, full curve, poor fit]"
COc1cccc2c(NCc3ccccc3)nc(-n3c(N)nc4ccccc43)nc12,Potency,[1],active: 8.33 µM
same,Potency,[3],active: 2.96 µM
C#Cc1cccc(Nc2ncnc3cc(OC)c(OCCCCCCC(=O)NO)cc23)c1,Potency,[2],"inconclusive: 0.332 µM [cytotoxic, full curve, poor fit]"
N=C(N)c1ccc(OCCCCCOc2ccc(C(=N)N)cc2)cc1,Potency,[1],"inconclusive: 6.62 µM [cytotoxic, partial curve]"
same,Potency,[2],"inconclusive: 10.5 µM [cytotoxic, partial curve]"
same,Potency,[3],active: 5.9 µM
Cn1cc(C=CC(=O)c2cccc(F)c2)cc1C=CC(=O)NO,Potency,[1],active: 23.5 µM
same,Potency,[3],"inconclusive: 18.7 µM [cytotoxic, partial curve]"
C[C@@H]1C[C@H]2[C@@H]3CCC4=CC(=O)C=C[C@]4(C)[C@@]3(F)[C@@H](O)C[C@]2(C)[C@@]1(O)C(=O)CO,Potency,[2],active: 0.0132 µM
O=C(CCCCCCNC(=O)c1cnc(N(c2ccccc2)c2ccccc2)nc1)NO,Potency,[1],active: 10.5 µM
same,Potency,[3],active: 4.18 µM
Cc1ccc(S(=O)(=O)Nc2cc(Cl)ccc2C(=O)Nc2nc(-c3ccccc3)cs2)cc1,Potency,[1],"inconclusive: 13.2 µM [cytotoxic, partial curve]"
same,Potency,[3],"inconclusive: 9.35 µM [cytotoxic, partial curve]"
C=CCc1ccc(O)c(OC)c1,Potency,[4],"inconclusive: 0.0447 µM [inhibitor, full curve]"
CC(C)=CCC[C@@](C)(O)[C@H]1CC=C(C)CC1,Potency,[5],"inconclusive: 31.6 µM [activator, partial curve, poor fit]"
CC1=C(C/C=C(\C)CCC[C@H](C)CCC[C@H](C)CCCC(C)C)C(=O)c2ccccc2C1=O,Potency,[5],"inconclusive: 31.6 µM [activator, single point]"
O=C1O[C@H]([C@@H](O)CO)C(O)=C1O,Potency,[6],"inconclusive: 7.94 µM [inhibitor, partial curve, poor fit]"

# Shown with bars between the fields: entries from further up.
compound | measurement | setting | value
COc1ccc(-c2oc3c(CC=C(C)C)c(O)cc(O)c3c(=O)c2O)cc1 | Potency | [2] | inactive
COc1cccc2c(NCc3ccccc3)nc(-n3c(N)nc4ccccc43)nc12 | Potency | [3] | active: 2.96 µM
